PubChem BioAssay AID602196 – INSERM – 2012
Test: 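Genes whose knock-down alters cisplatin killing of lung cancer cells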. Cells: human A549 lung cancer cells. Reagents: siRNA pair against human genes. Time to read-out: 48 h transfection before cisplatin; time from cisplatin to read-out not stated. Challenge: cisplatin at a dose killing half of control-siRNA cells; exact dose and duration not given. Detection: 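Shift in cisplatin death relative to control siRNA, from -50 (all cells die) to +50 (no cells die); siRNAs harmful on their own scored 0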. Reading the numbers: two-siRNA summed score (-2 to +2): higher = both siRNAs protect from cisplatin killing; -2 means both sensitise; mean protection from cisplatin (shift in death) and protection from cisplatin (shift in death), siRNA C and protection from cisplatin (shift in death), siRNA D: higher = protection from cisplatin killing. Rule for the call: 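Each siRNA scores 0 if harmful alone by LDH or WST-1, otherwise +1 if it reduces and -1 if it increases cisplatin killing; a gene is active when both siRNAs agree (sum +2 or -2)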. Meaning of the calls: active = both siRNAs shift cisplatin killing the same way; inactive = no consistent shift, or siRNA harmful alone.
In all, the deposit lists about 23,000 reagents; below is a random part of them. In the full data, 455 (2%) were called active. 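Active includes both protection and sensitisation; some change values fall well beyond the stated -50 to +50 range.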 Entries without a mark were called inactive. Not given: the amount of reagent.

| two-siRNA summed score (-2 to +2) | mean protection from cisplatin (shift in death) (%) | protection from cisplatin (shift in death), siRNA C (%) | protection from cisplatin (shift in death), siRNA D (%) | gene symbol | PubChem SID |
| --- | --- | --- | --- | --- | --- |
| 0 | 10.9 | 4 | 17.8 | ZEB2 (zinc finger E-box binding homeobox 2) | SID131516458 |
| 1 | 9.6 | 12.9 | 6.3 | LINC02898 (long independently transcribed non-coding RNA 2898) | SID131520351 |
| 1 | 5.3 | -7.6 | 18.3 | ROS1 (ROS proto-oncogene 1, receptor tyrosine kinase) | SID131519404 |
| 0 | 8.6 | 10.2 | 7 | APOBEC3D (apolipoprotein B mRNA editing enzyme catalytic subunit 3D) | SID131515074 |
| 1 | 3.2 | 7.8 | -1.4 | RPP14 (ribonuclease P/MRP subunit p14) | SID131519159 |
| 0 | 13.2 | 20.1 | 6.3 | LOC131076 | SID131517368 |
| 0 | 14.1 | 14.4 | 13.9 | LOC132870 | SID131517636 |
| 0 | -12.8 | -10 | -15.7 | RFX2 (regulatory factor X2) | SID131503148 |
| 0 | 8.4 | 18.1 | -1.2 | ACTL11P (actin like 11, pseudogene) | SID131514931 |
| 1 | 15.6 | 7.4 | 23.9 | LVRN (laeverin) | SID131521971 |
| 0 | -6 | 2.9 | -14.9 | HHAT (hedgehog acyltransferase) | SID131504240 |
| 0 | -5.6 | -5.2 | -6 | TSGA13 (testis specific 13) | SID131504378 |
| 0 | 6.3 | 3 | 9.7 | KRTAP2-2 (keratin associated protein 2-2) | SID131513206 |
| 0 | 11.9 | -0.2 | 24 | VPS54 (VPS54 subunit of GARP complex) | SID131516914 |
| 0 | -11.9 | -19.9 | -3.9 | USP4 (ubiquitin specific peptidase 4) | SID131503226 |
| 0 | -2.2 | -4.5 | 0.2 | DUSP16 (dual specificity phosphatase 16) | SID131506013 |
| 0 | 3 | 13.4 | -7.3 | MPO (myeloperoxidase) | SID131510245 |
| 0 | 1.8 | -7.1 | 10.8 | FAM171B (family with sequence similarity 171 member B) | SID131509127 |
| -1 | -7.7 | 0.6 | -16 | HLA-DRB4 (major histocompatibility complex, class II, DR beta 4) | SID131501735 |
| 0 | 5.5 | 5.5 | 5.5 | LOC390594 | SID131512443 |
| 0 | -3.3 | -3.4 | -3.2 | IER2 (immediate early response 2) | SID131505362 |
| 1 | 13 | 19.6 | 6.5 | STK17B (serine/threonine kinase 17b) | SID131521338 |
| 2 (active) | 17.7 | 13.7 | 21.7 | TGFBR2 (transforming growth factor beta receptor 2) | SID131523040 |
